Experimental data: PubChem BioAssay AID1053208 (Peter MacCallum Cancer Centre, 2014)
Test: 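Synthetic lethal interactions between gene loss and doxorubicin in osteosarcoma cells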 (primary screen). Cells: mouse osteosarcoma cells, early-passage culture from an engineered mouse model of fibroblastic bone tumour. Reagents: siRNA pool against mouse genes, 40 nM. Duration: about 120 h (48 h before drug, then 72 h with drug). Conditions: doxorubicin 100 nM for 72 h, roughly 30-40% inhibitory dose. Detection: 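Viability read as ATP luminescence after 72 h of 100 nM doxorubicin or none, duplicate wells averaged, scaled to non-targeting siRNA, then expressed as robust z-scores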. Direction: viability z-score with doxorubicin and doxorubicin viability vs non-targeting: higher = more viable cells under doxorubicin; viability z-score without drug: higher = more viable cells with knock-down alone; z-score of drug to no-drug ratio: higher = less drug sensitisation by knock-down. Active means: 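a pool counts as active when its viability z-score with doxorubicin is -2 or below and its z-score without drug lies between -2 and 2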.
In all, the deposit lists about 17,000 reagents; this is a random part of them. 788 of all reagents (4.7%) were called active. 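Calls rest on z-score classes alone; an extra cut-off of viability at most 70% of control was not applied to them.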 Entries without a mark were called inactive.

target	combined z-score class	viability z-score with doxorubicin	viability z-score without drug	z-score of drug to no-drug ratio	doxorubicin viability vs non-targeting
Naa20	no change with or without drug	-1.46	-1.52	-0.45	0.81
Tbc1d22b	no change with or without drug	0	0.67	-0.34	0.94
Trpv3	no change with or without drug	0.45	1.52	-0.45	0.98
Krt13	no change with or without drug	-0.79	-0.17	-0.56	0.87
Mcm2	no change with or without drug	0.9	-0.84	1.69	1.02
Ak1	no change with or without drug	-0.22	-0.17	0	0.92
Ptpn7	no change with or without drug	1.01	0.34	0.9	1.03
Gm4894	no change with or without drug	0	0.34	-0.11	0.94
Stap2	low cell count with doxorubicin only (active)	-4.05	0.34	-4.27	0.58
Tex19.2	no change with or without drug	-1.57	-0.17	-1.46	0.8
Ada	no change with or without drug	-1.57	-0.51	-1.24	0.8
Zfp764l1	no change with or without drug	0.22	1.52	-0.67	0.96
Plxdc1	no change with or without drug	-0.22	-0.17	0	0.92
Zfp871	no change with or without drug	-0.22	-0.34	0.11	0.92
Amacr	high cell count with doxorubicin only	2.47	0.34	2.47	1.16
Gsta2	no change with or without drug	0	-0.84	0.67	0.94
Cryaa	no change with or without drug	-0.9	0	-0.79	0.86
Gsn	no change with or without drug	0.56	-0.67	1.24	0.99
Galntl6	no change with or without drug	1.12	1.35	0.34	1.04
Gpr50	no change with or without drug	0.11	0.84	-0.34	0.95
Fam13a	no change with or without drug	0.22	1.52	-0.67	0.96
Eid1	no change with or without drug	-1.57	0.67	-1.91	0.8
Pgr	no change with or without drug	-0.45	1.52	-1.24	0.9
Rheb	no change with or without drug	0.67	0.34	0.56	1
2310011J03Rik	no change with or without drug	-0.56	1.18	-1.24	0.89
Pcdha4	no change with or without drug	-1.12	0.84	-1.57	0.84
Igf2r	no change with or without drug	-0.67	0.84	-1.12	0.88
Apcdd1	no change with or without drug	0.67	1.01	0.11	1
Atxn2	no change with or without drug	0.79	1.18	0.11	1.01
Prl7a1	no change with or without drug	0.79	-0.17	1.01	1.01
Spata7	no change with or without drug	-0.9	-0.84	-0.22	0.86
Atoh8	low cell count with doxorubicin only (active)	-2.14	-0.17	-2.02	0.75
Tmsb15l	no change with or without drug	-1.12	1.18	-1.8	0.84
Mbnl2	low cell count with doxorubicin only (active)	-4.05	-1.85	-3.26	0.58
Arnt2	no change with or without drug	0.22	1.52	-0.67	0.96
Pold1	no change with or without drug	-1.57	0	-1.57	0.8
Gale	no change with or without drug	0.67	0.84	0.22	1
Tnfrsf8	no change with or without drug	0.22	0.51	0	0.96
Rcn3	no change with or without drug	-1.91	-0.51	-1.57	0.77
Art2b	no change with or without drug	-0.22	0.34	-0.34	0.92
Rbpms	low cell count with doxorubicin only (active)	-4.72	-0.17	-4.83	0.52
Rpa2	low cell count with and without drug	-7.42	-5.9	-5.73	0.28
Stab2	no change with or without drug	1.46	0.51	1.24	1.07
9530002B09Rik	no change with or without drug	1.12	1.52	0.22	1.04
Nvl	no change with or without drug	0.11	-1.52	1.35	0.95
Ranbp3l	no change with or without drug	-0.45	-0.51	0	0.9
Pex26	no change with or without drug	0.34	0.67	0	0.97
Tmem19	high cell count with doxorubicin only	2.59	1.69	1.46	1.17
S1pr2	no change with or without drug	-0.45	-0.67	0.11	0.9
Ndc80	no change with or without drug	0.56	0.51	0.34	0.99

Records listed so far whose gene name starts with P or p:
target	combined z-score class	viability z-score with doxorubicin	viability z-score without drug	z-score of drug to no-drug ratio	doxorubicin viability vs non-targeting
Ptpn7	no change with or without drug	1.01	0.34	0.9	1.03
Plxdc1	no change with or without drug	-0.22	-0.17	0	0.92
Pgr	no change with or without drug	-0.45	1.52	-1.24	0.9
Pcdha4	no change with or without drug	-1.12	0.84	-1.57	0.84
Prl7a1	no change with or without drug	0.79	-0.17	1.01	1.01
Pold1	no change with or without drug	-1.57	0	-1.57	0.8
Pex26	no change with or without drug	0.34	0.67	0	0.97
